Data as given in PubChem BioAssay AID1053208 (Peter MacCallum Cancer Centre, 2014).

Screen: 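Synthetic lethal interactions between gene loss and doxorubicin in osteosarcoma cells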 (primary screen)
Cell system: mouse osteosarcoma cells, early-passage culture from an engineered mouse model of fibroblastic bone tumour
Reagent: siRNA pool against mouse genes, 40 nM
Duration: about 120 h (48 h before drug, then 72 h with drug)
Treatment: doxorubicin 100 nM for 72 h, roughly 30-40% inhibitory dose
Read-out: 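Viability read as ATP luminescence after 72 h of 100 nM doxorubicin or none, duplicate wells averaged, scaled to non-targeting siRNA, then expressed as robust z-scores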
Scale: viability z-score with doxorubicin: higher = more viable cells under doxorubicin; viability z-score without drug: higher = more viable cells with knock-down alone
Rule for the call: 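Called active if knock-down leaves viability unchanged without drug (z within -2 to 2) but lowers it with doxorubicin (z at or under -2)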
This is one part, drawn at random, of about 17,000 reagents tested. 788 of all reagents (4.7%) were called active. 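Calls rest on z-score classes alone; an extra cut-off of viability at most 70% of control was not applied to them.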 Unmarked entries are inactive. Further read-outs or replicates are left out here.

| gene | combined z-score class | viability z-score with doxorubicin | viability z-score without drug |
| --- | --- | --- | --- |
| Slc43a2 | no change with or without drug | 0.9 | -0.67 |
| Cldn16 | no change with or without drug | 0.34 | -0.84 |
| Cd109 | no change with or without drug | -1.24 | -0.84 |
| Hyal5 | no change with or without drug | -0.67 | -0.51 |
| Nop2 | no change with or without drug | 1.12 | -0.67 |
| Trim23 | no change with or without drug | -0.9 | -0.17 |
| Or4c101 | no change with or without drug | 0.9 | 1.18 |
| Ostn | no change with or without drug | -1.8 | -0.51 |
| Hmbox1 | no change with or without drug | 1.57 | 0.51 |
| Stradb | no change with or without drug | 0.67 | -1.85 |
| Spaar | no change with or without drug | -1.57 | 0.84 |
| Pogz | no change with or without drug | 1.8 | 0.34 |
| Or5p56 | no change with or without drug | 0.45 | -0.84 |
| Nek11 | no change with or without drug | -0.56 | -0.51 |
| Or4c11b | no change with or without drug | -0.67 | -1.69 |
| Abcc8 | no change with or without drug | -1.35 | 0 |
| 4932442K08RIK | low cell count without drug only | 0 | -3.2 |
| Lrrc7 | no change with or without drug | -0.34 | 0.51 |
| Vps36 | no change with or without drug | -1.12 | 1.18 |
| Vax2 | no change with or without drug | -0.11 | -0.17 |
| Apoa5 | low cell count without drug only | -0.45 | -2.19 |
| Rara | no change with or without drug | 0.45 | 0.17 |
| Id3 | no change with or without drug | -1.46 | -1.52 |
| Bak1 | high cell count with doxorubicin only | 2.02 | 1.18 |
| Rpl23 | low cell count with and without drug | -6.97 | -5.23 |
| Tdpoz4 | high cell count without drug only | 0.11 | 2.19 |
| Idh3g | no change with or without drug | -1.35 | -0.51 |
| Dele1 | no change with or without drug | 0.9 | 1.18 |
| Pycr1 | no change with or without drug | -1.12 | -0.17 |
| Vps37c | no change with or without drug | 1.35 | 0.17 |
| Lpar4 | no change with or without drug | 0.67 | 0 |
| Mical1 | no change with or without drug | 1.69 | -0.51 |
| Nomo1 | no change with or without drug | -0.79 | -0.84 |
| S100a3 | no change with or without drug | -0.79 | -0.34 |

Looked up above:
Or5p56, combined z-score class: no change with or without drug
Result of Rpl23 in “viability z-score with doxorubicin”: -6.97
